The match of structure and compound is tentative.
Molecular target: VEGFR2 (Homo sapiens, UniProt P35968)
Assay: Inhibition against VEGFR2 kinase (receptor tyrosine kinase activity, HTRF method)
Type: biochemical
Conditions: read-out: IC50 (concentration required for 50% inhibition of VEGFR2 kinase activity), His6-VEGFR2 cytoplasmic domain, biotin-poly(GT) substrate, ATP, 30° C. 10 minutes
Protocol: Measurement of Inhibition Against Receptor Tyrosine Kinase Activity
This assay is used to determine inhibition of a test substance on tyrosine kinase activity. DNA coding for the cytoplasmic domain of VEGFR2 is obtained by total cDNA synthesis (Edwards M, International Biotechnology Lab 5(3), 19–25, 1987) or by cloning. Expression in an appropriate expression system can produce a polypeptide with tyrosine kinase activity. […]
The supernatant was added to a Ni—NTA agarose column (3 ml, purchased from Qiagen) equilibrated with Buffer A {20 mM Tris-HCl (pH 8.5), 5 mM 2-mercaptoethanol, 500 mM KCl, 20 mM imidazole, 10% (v/v) glycerol}. […] After dialysis, it was supplied for SDS-electrophoresis, and the recombinant protein (His6-VEGFR2, cytoplasmic domain of VEGFR2 fused with 6 histidine residues at the N-terminus) detected at a molecular weight of approximately 100 kDa with Coumassie Brilliant Blue staining was assayed using BSA (bovine serum albumin, purchased from Sigma Co.) as the standard substance, and stored at −80° C. until use. […]

The chains behind the UniProt entries cited, without tags or fusion partners. Residues count along the entry.
UniProt P35968, 786-1356 limits assumed: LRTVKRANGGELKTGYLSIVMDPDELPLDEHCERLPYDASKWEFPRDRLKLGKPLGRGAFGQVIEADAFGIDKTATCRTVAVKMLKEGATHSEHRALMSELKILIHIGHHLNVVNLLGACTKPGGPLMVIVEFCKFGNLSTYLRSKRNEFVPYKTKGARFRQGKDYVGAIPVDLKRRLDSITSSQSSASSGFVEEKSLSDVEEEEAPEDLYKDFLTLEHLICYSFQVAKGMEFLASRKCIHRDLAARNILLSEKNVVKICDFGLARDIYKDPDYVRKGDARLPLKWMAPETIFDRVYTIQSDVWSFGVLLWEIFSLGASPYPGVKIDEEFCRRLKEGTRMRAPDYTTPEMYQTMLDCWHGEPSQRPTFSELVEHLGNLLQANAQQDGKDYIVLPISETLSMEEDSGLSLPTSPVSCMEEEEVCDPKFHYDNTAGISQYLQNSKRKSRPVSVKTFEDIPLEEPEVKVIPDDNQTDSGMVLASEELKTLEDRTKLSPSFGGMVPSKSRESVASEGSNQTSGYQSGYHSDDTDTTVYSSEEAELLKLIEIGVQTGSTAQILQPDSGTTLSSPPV

CCN(CC)CCCOc1cc2nccc(Oc3ccc(NC(=O)Nc4ccc(OC)cc4)cc3)c2cc1C#N
IC50: 18 nM
